Results are given in words; binding and its absence hold for the method and conditions named. In cells and extracts the contact can be indirect. Some entries that bind do so weakly or less than the wild type.
Target: T1, alpha-B crystallin (CRYAB) (human (endogenous in BMSCs)) (UniProt P02511)
T1 sequence: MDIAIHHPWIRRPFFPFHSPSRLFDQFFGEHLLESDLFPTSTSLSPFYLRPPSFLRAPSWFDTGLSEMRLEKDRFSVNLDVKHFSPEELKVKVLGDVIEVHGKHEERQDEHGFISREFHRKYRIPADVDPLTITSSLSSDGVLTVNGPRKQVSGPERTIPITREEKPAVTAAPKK
Test: co-IP; lysates of BMSCs stimulated with PLGA or P20F scaffolds for 24 h; anti-CRYAB antibody overnight at 4 °C, Pierce Magnetic IP/Co-IP Kit; blots with anti-CRYAB and anti-β-catenin

Amino acid sequences for entries named in this document (tags omitted).
UniProt P35222: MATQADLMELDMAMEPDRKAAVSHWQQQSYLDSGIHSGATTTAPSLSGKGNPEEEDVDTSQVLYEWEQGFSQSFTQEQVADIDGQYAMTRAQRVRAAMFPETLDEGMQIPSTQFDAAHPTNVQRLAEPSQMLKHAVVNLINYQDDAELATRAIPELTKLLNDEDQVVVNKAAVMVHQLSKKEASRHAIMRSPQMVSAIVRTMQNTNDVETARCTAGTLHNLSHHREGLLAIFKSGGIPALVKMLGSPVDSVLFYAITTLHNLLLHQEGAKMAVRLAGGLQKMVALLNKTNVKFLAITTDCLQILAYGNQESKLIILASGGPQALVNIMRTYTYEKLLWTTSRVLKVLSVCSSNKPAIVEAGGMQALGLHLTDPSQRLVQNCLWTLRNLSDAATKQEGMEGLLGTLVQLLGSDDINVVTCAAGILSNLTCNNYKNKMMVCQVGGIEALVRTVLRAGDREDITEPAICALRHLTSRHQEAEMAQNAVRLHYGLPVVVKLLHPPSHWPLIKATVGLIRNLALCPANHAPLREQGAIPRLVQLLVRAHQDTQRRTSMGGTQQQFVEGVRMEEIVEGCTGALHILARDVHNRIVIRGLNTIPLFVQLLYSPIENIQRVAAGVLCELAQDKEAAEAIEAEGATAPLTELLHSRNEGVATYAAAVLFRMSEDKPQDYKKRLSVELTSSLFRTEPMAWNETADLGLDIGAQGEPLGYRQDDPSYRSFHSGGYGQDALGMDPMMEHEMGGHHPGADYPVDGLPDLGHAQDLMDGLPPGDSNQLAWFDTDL

- binding: binds
Substance: β-catenin (from UniProt P35222 1-781)
